For one assay, the target named is Flag-NCAPH (UniProt Q15003). Nature of the assay: co-IP; HEK 293T cells cotransfected with HA-TRIM21 or its domain mutants and Flag-NCAPH; precipitated with Flag antibody, western blot.
The target of assay [1] is Tripartite motif-containing protein 21 (TRIM21) (human (endogenous in HeLa)) (UniProt P19474). Description: co-IP; endogenous proteins, cell lysate, TRIM21 antibody as bait, protein A agarose beads, 4 °C overnight, western blot. On the technique in general: A western blot detects proteins with antibodies after separation by electrophoresis.
In assay [2] the target is NCAPH (non-SMC condensin I complex subunit H) (human (endogenous in HeLa)) (UniProt Q15003). Nature of the assay: co-IP; endogenous proteins, cell lysate, NCAPH antibody as bait, protein A agarose beads, 4 °C overnight, western blot.
A further assay addresses TRIM21 ΔB-box (91-128AA) (UniProt P19474). Description: co-IP; HEK 293T cells cotransfected with HA-TRIM21 or its domain mutants and Flag-NCAPH; precipitated with HA antibody, western blot.
The next assay has as its target TRIM21 ΔRING (15-58AA) (UniProt P19474). The assay is described as above.
Another assay has as its target TRIM21 ΔCC (130-255AA) (UniProt P19474). The description is as above.
The target in the next assay is HA-TRIM21 (UniProt P19474). The description is as above.
Assay [3] concerns the target TRIM21 ΔPRY/SPRY (286-475AA) (UniProt P19474). The assay is described as above.

Sequences of proteins named here, by UniProt entry; tags and fusion partners are left off. A change or cut given only in a name is not applied to a line headed by its entry. A line that says so, or that is headed by a name, gives the form on record, which may keep a tag or linker.
UniProt Q15003: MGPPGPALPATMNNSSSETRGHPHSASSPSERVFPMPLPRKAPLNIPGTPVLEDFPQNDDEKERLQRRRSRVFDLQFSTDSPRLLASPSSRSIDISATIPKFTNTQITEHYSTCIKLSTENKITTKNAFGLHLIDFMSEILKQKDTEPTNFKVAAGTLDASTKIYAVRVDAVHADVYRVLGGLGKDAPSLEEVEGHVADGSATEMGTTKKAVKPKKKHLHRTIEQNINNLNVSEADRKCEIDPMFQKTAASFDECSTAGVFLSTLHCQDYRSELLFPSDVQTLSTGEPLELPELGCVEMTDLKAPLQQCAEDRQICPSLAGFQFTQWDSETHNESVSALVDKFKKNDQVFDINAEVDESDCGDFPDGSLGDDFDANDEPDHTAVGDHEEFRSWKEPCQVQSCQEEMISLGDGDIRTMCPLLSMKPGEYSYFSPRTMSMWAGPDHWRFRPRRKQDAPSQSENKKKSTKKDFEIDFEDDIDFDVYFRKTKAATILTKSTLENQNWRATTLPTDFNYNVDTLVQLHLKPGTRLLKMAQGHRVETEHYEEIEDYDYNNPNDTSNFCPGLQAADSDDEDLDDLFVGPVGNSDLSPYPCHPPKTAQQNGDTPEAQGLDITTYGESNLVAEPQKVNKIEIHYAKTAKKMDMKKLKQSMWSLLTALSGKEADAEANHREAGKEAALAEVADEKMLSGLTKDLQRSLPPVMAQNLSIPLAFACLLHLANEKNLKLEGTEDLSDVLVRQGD
UniProt P19474: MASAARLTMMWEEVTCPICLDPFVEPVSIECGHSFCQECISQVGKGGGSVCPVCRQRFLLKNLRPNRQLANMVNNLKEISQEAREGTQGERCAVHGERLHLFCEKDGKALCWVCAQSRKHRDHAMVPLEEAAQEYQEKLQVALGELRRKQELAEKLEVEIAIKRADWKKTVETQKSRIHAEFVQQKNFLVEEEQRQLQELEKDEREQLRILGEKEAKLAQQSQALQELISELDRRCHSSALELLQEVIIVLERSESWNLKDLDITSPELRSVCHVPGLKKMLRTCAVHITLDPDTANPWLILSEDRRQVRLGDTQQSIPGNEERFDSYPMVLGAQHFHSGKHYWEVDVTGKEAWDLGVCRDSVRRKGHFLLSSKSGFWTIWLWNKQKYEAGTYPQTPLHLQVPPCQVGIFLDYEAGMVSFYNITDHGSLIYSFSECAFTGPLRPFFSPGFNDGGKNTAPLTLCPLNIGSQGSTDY
TRIM21 ΔRING (15-58AA) (P19474, form named): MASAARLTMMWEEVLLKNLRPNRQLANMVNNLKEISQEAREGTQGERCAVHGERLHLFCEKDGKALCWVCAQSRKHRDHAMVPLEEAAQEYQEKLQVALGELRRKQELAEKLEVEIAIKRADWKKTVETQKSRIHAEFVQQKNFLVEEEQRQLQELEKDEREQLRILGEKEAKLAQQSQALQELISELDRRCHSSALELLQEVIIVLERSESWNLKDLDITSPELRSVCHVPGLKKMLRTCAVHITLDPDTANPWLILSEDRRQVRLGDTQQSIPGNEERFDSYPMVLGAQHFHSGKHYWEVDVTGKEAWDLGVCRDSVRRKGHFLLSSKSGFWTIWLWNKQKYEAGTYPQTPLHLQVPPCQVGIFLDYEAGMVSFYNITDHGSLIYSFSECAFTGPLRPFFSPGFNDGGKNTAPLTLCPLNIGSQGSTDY
TRIM21 ΔCC (130-255AA) (P19474, form named): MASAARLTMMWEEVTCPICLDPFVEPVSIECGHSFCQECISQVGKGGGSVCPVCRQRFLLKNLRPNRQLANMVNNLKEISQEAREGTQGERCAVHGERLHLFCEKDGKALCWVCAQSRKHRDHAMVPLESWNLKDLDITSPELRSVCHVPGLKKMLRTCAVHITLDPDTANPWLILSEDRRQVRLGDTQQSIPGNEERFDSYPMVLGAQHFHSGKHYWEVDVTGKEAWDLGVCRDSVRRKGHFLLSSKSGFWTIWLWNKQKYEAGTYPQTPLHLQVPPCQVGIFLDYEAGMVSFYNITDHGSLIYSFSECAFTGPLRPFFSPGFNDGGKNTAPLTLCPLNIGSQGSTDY
TRIM21 ΔB-box (91-128AA) (P19474, form named): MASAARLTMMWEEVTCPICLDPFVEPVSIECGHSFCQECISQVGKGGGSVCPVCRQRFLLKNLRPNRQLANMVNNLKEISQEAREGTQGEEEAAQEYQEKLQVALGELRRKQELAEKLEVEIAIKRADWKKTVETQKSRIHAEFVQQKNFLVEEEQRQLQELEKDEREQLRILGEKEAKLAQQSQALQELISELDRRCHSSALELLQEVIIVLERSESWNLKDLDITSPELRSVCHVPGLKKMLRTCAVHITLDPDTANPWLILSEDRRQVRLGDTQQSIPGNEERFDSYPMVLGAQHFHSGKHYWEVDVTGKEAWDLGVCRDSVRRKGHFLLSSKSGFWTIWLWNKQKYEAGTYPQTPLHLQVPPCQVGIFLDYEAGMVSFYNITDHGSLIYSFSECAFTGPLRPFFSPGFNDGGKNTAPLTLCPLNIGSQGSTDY

Results are given in words; binding and its absence hold for the method and conditions named. In cells and extracts the contact can be indirect. Some results given as binding are weak or reduced against the parent protein; the word gives no strength.

For “TRIM21 ΔRING (15-58AA) (from UniProt P19474 1-475)”, in the assay with Flag-NCAPH, the binding result is “binds”.
As to “TRIM21 ΔCC (130-255AA) (from UniProt P19474 1-475)”, the binding result in the assay with Flag-NCAPH is recorded as “binds weakly”.
For “TRIM21 ΔB-box (91-128AA) (from UniProt P19474 1-475)”, in the assay with Flag-NCAPH, the binding entry was “binds”.
As to “TRIM21 ΔPRY/SPRY (286-475AA) (from UniProt P19474 1-475)”, in the assay with Flag-NCAPH, the binding entry was “binds weakly”.
Consider “NCAPH (non-SMC condensin I complex subunit H) (from UniProt Q15003 1-741)”, for which, in assay [1], the binding result is recorded as “binds”.
Take HA-TRIM21 (from UniProt P19474 1-475): the binding result with Flag-NCAPH is recorded as “binds”.
For “Tripartite motif-containing protein 21 (TRIM21) (from UniProt P19474 1-475)”, in assay [2], the binding result is “binds”.
As for Flag-NCAPH (from UniProt Q15003 1-741), the binding result with TRIM21 ΔB-box (91-128AA) is on record as “binds”; in the assay with TRIM21 ΔRING (15-58AA), “binds”; with TRIM21 ΔCC (130-255AA), “binds weakly”; with HA-TRIM21, “binds”; in assay [3] it was “binds weakly”.
